These results are taken from publication PMC11020266.

Chains of the proteins cited; added tags and fusions are not shown.
UniProt Q8K1M6: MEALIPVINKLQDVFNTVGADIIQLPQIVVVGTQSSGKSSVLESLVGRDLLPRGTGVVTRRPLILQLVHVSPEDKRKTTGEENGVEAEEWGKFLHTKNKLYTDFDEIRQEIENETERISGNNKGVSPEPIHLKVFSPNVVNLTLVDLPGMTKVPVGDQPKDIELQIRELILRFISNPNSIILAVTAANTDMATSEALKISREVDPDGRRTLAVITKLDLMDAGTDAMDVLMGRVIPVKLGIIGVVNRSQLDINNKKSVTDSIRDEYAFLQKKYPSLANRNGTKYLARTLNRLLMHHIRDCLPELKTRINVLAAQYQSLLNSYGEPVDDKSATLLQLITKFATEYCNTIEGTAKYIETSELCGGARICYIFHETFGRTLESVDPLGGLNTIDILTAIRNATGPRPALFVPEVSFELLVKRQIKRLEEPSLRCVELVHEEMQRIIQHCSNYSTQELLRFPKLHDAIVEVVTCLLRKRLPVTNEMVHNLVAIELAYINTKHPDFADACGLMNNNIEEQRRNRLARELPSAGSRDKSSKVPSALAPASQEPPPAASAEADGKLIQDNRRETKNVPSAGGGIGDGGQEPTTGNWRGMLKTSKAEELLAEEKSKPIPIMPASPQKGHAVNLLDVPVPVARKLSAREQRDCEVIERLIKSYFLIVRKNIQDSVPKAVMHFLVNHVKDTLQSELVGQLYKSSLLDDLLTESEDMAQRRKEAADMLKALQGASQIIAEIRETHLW

Results are given in words; binding and its absence hold for the method and conditions named. In cells and extracts the contact can be indirect. Some binding calls cover weakened binding; strength is not graded here.

For assay [1], the target named is T1, Gasdermin D (mouse (endogenous in hippocampus)) (UniProt Q9D8T2).
T1 sequence: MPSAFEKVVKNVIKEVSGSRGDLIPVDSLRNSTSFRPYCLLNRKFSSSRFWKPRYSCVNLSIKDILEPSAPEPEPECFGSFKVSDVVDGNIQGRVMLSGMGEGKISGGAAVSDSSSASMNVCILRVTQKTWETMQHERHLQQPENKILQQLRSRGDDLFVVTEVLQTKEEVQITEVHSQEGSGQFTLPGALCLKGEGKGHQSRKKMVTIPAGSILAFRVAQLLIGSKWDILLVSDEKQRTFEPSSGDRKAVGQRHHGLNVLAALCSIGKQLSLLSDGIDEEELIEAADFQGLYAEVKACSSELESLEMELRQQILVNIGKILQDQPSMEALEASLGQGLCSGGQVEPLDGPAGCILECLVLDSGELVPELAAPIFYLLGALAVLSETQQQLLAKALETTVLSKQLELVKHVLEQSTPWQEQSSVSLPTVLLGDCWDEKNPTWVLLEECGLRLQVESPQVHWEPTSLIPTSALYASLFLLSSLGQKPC
Put plainly: co-IP; mouse hippocampal lysate supernatant; immunoprecipitation with anti-GSDMD, anti-Drp1 or IgG control for 2 h, then protein A/G-agarose beads overnight; five washes with lysis buffer; western blotting with anti-Drp1 and anti-GSDMD. Background: A western blot detects proteins with antibodies after separation by electrophoresis.

For assay [2], the target named is Dynamin-related protein 1 (mouse (endogenous in hippocampus)) (UniProt Q8K1M6). The assay is described as above.

With “Dynamin-related protein 1 (from UniProt Q8K1M6 1-736)”, in assay [1], the binding result is reported as “binds”.

B1: Gasdermin D (protein, UniProt Q9D8T2 1-487)
chain: MPSAFEKVVKNVIKEVSGSRGDLIPVDSLRNSTSFRPYCLLNRKFSSSRFWKPRYSCVNLSIKDILEPSAPEPEPECFGSFKVSDVVDGNIQGRVMLSGMGEGKISGGAAVSDSSSASMNVCILRVTQKTWETMQHERHLQQPENKILQQLRSRGDDLFVVTEVLQTKEEVQITEVHSQEGSGQFTLPGALCLKGEGKGHQSRKKMVTIPAGSILAFRVAQLLIGSKWDILLVSDEKQRTFEPSSGDRKAVGQRHHGLNVLAALCSIGKQLSLLSDGIDEEELIEAADFQGLYAEVKACSSELESLEMELRQQILVNIGKILQDQPSMEALEASLGQGLCSGGQVEPLDGPAGCILECLVLDSGELVPELAAPIFYLLGALAVLSETQQQLLAKALETTVLSKQLELVKHVLEQSTPWQEQSSVSLPTVLLGDCWDEKNPTWVLLEECGLRLQVESPQVHWEPTSLIPTSALYASLFLLSSLGQKPC
On to B1, for which the binding result in assay [2] is listed as “binds”.
